# According to the supplement of paper PMC8728848:
# The other results are listed elsewhere or left out.
# B1: Drgal1 (Danio rerio) (protein)
# chain: MAGVLIQNMSFKVGQTLTITGVPKPDSTNFAINIGHSPEDIALHMNPRFDAHGDQCTIVCNSFQSGSWCEEHRDDNFPFIQDKEFQIKITFTNEEFLVTLPDGSEIHFPNRQGSEKYKYMYFEGEVRIQGVEIK
# Legend:
# Assay in all cases: glycan array binding signal (z-score within array); higher = stronger binding
# Settings in all cases: glycan notation: IUPAC condensed, linker removed
# Glc(b1-4)Glc = biological target: Glc(b1-4)Glc
# In short: (§1)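 Glycan array data were curated from 3228 arrays in the Consortium for Functional Glycomics database and kept only where the protein sequence was available. Glycan names were converted to IUPAC-condensed notation, and columns mapping to the same glycan were averaged. The binding signal is a within-array Z-score, averaged across arrays of the same protein sequence at different concentrations or buffers and across linkers. Negative Z-scores can be read as non-binding.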
# Glc(b1-6)Glc = biological target: Glc(b1-6)Glc
# In short: as §1
# GlcA(b1-3)Gal = biological target: GlcA(b1-3)Gal
# In short: as §1
# GlcA(b1-3)GlcNAc = biological target: GlcA(b1-3)GlcNAc
# In short: as §1
# GlcA(b1-6)Gal = biological target: GlcA(b1-6)Gal
# In short: as §1
# [1] = biological target: GlcA3S(b1-3)Gal(b1-4)GlcNAc(b1-2)Man
# In short: as §1
# [2] = biological target: GlcA3S(b1-3)Gal(b1-4)GlcNAc(b1-3)Gal(b1-4)Glc
# In short: as §1
# [3] = biological target: GlcNAc(a1-3)Gal(b1-4)GlcNAc
# In short: as §1
# [4] = biological target: GlcNAc(a1-4)Gal(b1-3)GlcNAc
# In short: as §1
# [5] = biological target: GlcNAc(a1-4)Gal(b1-4)GalNAc
# In short: as §1
# [6] = biological target: GlcNAc(a1-4)Gal(b1-4)GlcNAc
# In short: as §1
# [7] = biological target: GlcNAc(a1-4)Gal(b1-4)GlcNAc(b1-3)Gal(b1-4)Glc
# In short: as §1
# [8] = biological target: GlcNAc(a1-4)Gal(b1-4)GlcNAc(b1-3)Gal(b1-4)GlcNAc
# In short: as §1
# [9] = biological target: GlcNAc(a1-4)Gal(b1-4)GlcNAc(b1-3)Gal(b1-4)GlcNAc(b1-3)Gal(b1-4)GlcNAc
# In short: as §1
# [10] = biological target: GlcNAc(a1-4)Gal(b1-4)GlcNAc(b1-3)Gal(b1-4)[Fuc(a1-3)]GlcNAc(b1-3)Gal(b1-4)[Fuc(a1-3)]GlcNAc
# In short: as §1
# [11] = biological target: GlcNAc(a1-6)Gal(b1-4)GlcNAc
# In short: as §1
# [12] = biological target: GlcNAc(b1-2)Gal(b1-3)GalNAc
# In short: as §1
# [13] = biological target: GlcNAc(b1-2)Man(a1-3)[GlcNAc(b1-2)Man(a1-6)]Man(b1-4)GlcNAc(b1-4)GlcNAc
# In short: as §1
# [14] = biological target: GlcNAc(b1-2)Man(a1-3)[GlcNAc(b1-2)Man(a1-6)]Man(b1-4)GlcNAc(b1-4)[Fuc(a1-6)]GlcNAc
# In short: as §1
# [15] = biological target: GlcNAc(b1-2)Man(a1-3)[GlcNAc(b1-4)][GlcNAc(b1-2)Man(a1-6)]Man(b1-4)GlcNAc(b1-4)GlcNAc
# In short: as §1
# [16] = biological target: GlcNAc(b1-2)Man(a1-3)[GlcNAc(b1-4)][GlcNAc(b1-2)Man(a1-6)]Man(b1-4)GlcNAc(b1-4)[Fuc(a1-6)]GlcNAc
# In short: as §1
# [17] = biological target: GlcNAc(b1-2)[GlcNAc(b1-4)]Man(a1-3)[GlcNAc(b1-2)Man(a1-6)]Man(b1-4)GlcNAc(b1-4)GlcNAc
# In short: as §1
# [18] = biological target: GlcNAc(b1-2)[GlcNAc(b1-4)]Man(a1-3)[GlcNAc(b1-4)][GlcNAc(b1-2)Man(a1-6)]Man(b1-4)GlcNAc(b1-4)GlcNAc
# In short: as §1
# [19] = biological target: GlcNAc(b1-2)[GlcNAc(b1-4)]Man(a1-3)[GlcNAc(b1-4)][GlcNAc(b1-2)[GlcNAc(b1-6)]Man(a1-6)]Man(b1-4)GlcNAc(b1-4)GlcNAc
# In short: as §1
# [20] = biological target: GlcNAc(b1-2)[GlcNAc(b1-4)]Man(a1-3)[GlcNAc(b1-4)][GlcNAc(b1-2)[GlcNAc(b1-6)]Man(a1-6)]Man(b1-4)GlcNAc(b1-4)[Fuc(a1-6)]GlcNAc
# In short: as §1
# [21] = biological target: GlcNAc(b1-2)[GlcNAc(b1-6)]Man(a1-6)[GlcNAc(b1-2)Man(a1-3)]Man(b1-4)GlcNAc(b1-4)GlcNAc
# In short: as §1
# [22] = biological target: GlcNAc(b1-2)[GlcNAc(b1-6)]Man(a1-6)[GlcNAc(b1-2)Man(a1-3)]Man(b1-4)GlcNAc(b1-4)[Fuc(a1-6)]GlcNAc
# In short: as §1
# [23] = biological target: GlcNAc(b1-2)[GlcNAc(b1-6)]Man(a1-6)[GlcNAc(b1-4)][GlcNAc(b1-2)Man(a1-3)]Man(b1-4)GlcNAc(b1-4)GlcNAc
# In short: as §1
# GlcNAc(b1-3)Fuc = biological target: GlcNAc(b1-3)Fuc
# In short: as §1
# GlcNAc(b1-3)Gal = biological target: GlcNAc(b1-3)Gal
# In short: as §1
# [24] = biological target: GlcNAc(b1-3)Gal(b1-3)GalNAc
# In short: as §1
# GlcNAc(b1-3)Gal(b1-4)Glc = biological target: GlcNAc(b1-3)Gal(b1-4)Glc
# In short: as §1
# [25] = biological target: GlcNAc(b1-3)Gal(b1-4)GlcNAc
# In short: as §1
# [26] = biological target: GlcNAc(b1-3)Gal(b1-4)GlcNAc(b1-2)Man(a1-3)[GlcNAc(b1-3)Gal(b1-4)GlcNAc(b1-2)Man(a1-6)]Man(b1-4)GlcNAc(b1-4)GlcNAc
# In short: as §1
# [27] = biological target: GlcNAc(b1-3)Gal(b1-4)GlcNAc(b1-2)Man(a1-3)[GlcNAc(b1-3)Gal(b1-4)GlcNAc(b1-2)Man(a1-6)]Man(b1-4)GlcNAc(b1-4)[Fuc(a1-6)]GlcNAc
# In short: as §1
# [28] = biological target: GlcNAc(b1-3)Gal(b1-4)GlcNAc(b1-2)[GlcNAc(b1-3)Gal(b1-4)GlcNAc(b1-6)]Man(a1-6)[GlcNAc(b1-3)Gal(b1-4)GlcNAc(b1-2)Man(a1-3)]Man(b1-4)GlcNAc(b1-4)GlcNAc
# In short: as §1
# [29] = biological target: GlcNAc(b1-3)Gal(b1-4)GlcNAc(b1-3)Gal(b1-4)GlcNAc
# In short: as §1
# [30] = biological target: GlcNAc(b1-3)Gal(b1-4)GlcNAc(b1-3)Gal(b1-4)GlcNAc(b1-2)Man(a1-3)[GlcNAc(b1-3)Gal(b1-4)GlcNAc(b1-3)Gal(b1-4)GlcNAc(b1-2)Man(a1-6)]Man(b1-4)GlcNAc(b1-4)GlcNAc
# In short: as §1
# [31] = biological target: GlcNAc(b1-3)Gal(b1-4)GlcNAc(b1-3)Gal(b1-4)GlcNAc(b1-2)Man(a1-3)[GlcNAc(b1-3)Gal(b1-4)GlcNAc(b1-3)Gal(b1-4)GlcNAc(b1-2)Man(a1-6)]Man(b1-4)GlcNAc(b1-4)[Fuc(a1-6)]GlcNAc
# In short: as §1
# [32] = biological target: GlcNAc(b1-3)Gal(b1-4)GlcNAc(b1-3)Gal(b1-4)GlcNAc(b1-2)[GlcNAc(b1-3)Gal(b1-4)GlcNAc(b1-3)Gal(b1-4)GlcNAc(b1-6)]Man(a1-6)[GlcNAc(b1-3)Gal(b1-4)GlcNAc(b1-3)Gal(b1-4)GlcNAc(b1-2)Man(a1-3)]Man(b1-4)GlcNAc(b1-4)[Fuc(a1-6)]GlcNAc
# In short: as §1
# [33] = biological target: GlcNAc(b1-3)Gal(b1-4)GlcNAc(b1-3)Gal(b1-4)GlcNAc(b1-3)Gal(b1-4)GlcNAc(b1-2)Man(a1-3)[GlcNAc(b1-3)Gal(b1-4)GlcNAc(b1-3)Gal(b1-4)GlcNAc(b1-3)Gal(b1-4)GlcNAc(b1-2)Man(a1-6)]Man(b1-4)GlcNAc(b1-4)GlcNAc
# In short: as §1
# [34] = biological target: GlcNAc(b1-3)Gal(b1-4)GlcNAc(b1-3)Gal(b1-4)GlcNAc(b1-3)Gal(b1-4)GlcNAc(b1-2)Man(a1-3)[GlcNAc(b1-3)Gal(b1-4)GlcNAc(b1-3)Gal(b1-4)GlcNAc(b1-3)Gal(b1-4)GlcNAc(b1-2)Man(a1-6)]Man(b1-4)GlcNAc(b1-4)[Fuc(a1-6)]GlcNAc
# In short: as §1
# [35] = biological target: GlcNAc(b1-3)Gal(b1-4)GlcNAc(b1-3)Gal(b1-4)GlcNAc(b1-3)Gal(b1-4)GlcNAc(b1-2)[GlcNAc(b1-3)Gal(b1-4)GlcNAc(b1-3)Gal(b1-4)GlcNAc(b1-3)Gal(b1-4)GlcNAc(b1-6)]Man(a1-6)[GlcNAc(b1-3)Gal(b1-4)GlcNAc(b1-3)Gal(b1-4)GlcNAc(b1-3)Gal(b1-4)GlcNAc(b1-2)Man(a1-3)]Man(b1-4)GlcNAc(b1-4)[Fuc(a1-6)]GlcNAc
# In short: as §1
# [36] = biological target: GlcNAc(b1-3)Gal(b1-4)GlcNAc(b1-3)Gal(b1-4)GlcNAc(b1-3)Gal(b1-4)GlcNAc(b1-3)Gal(b1-4)GlcNAc(b1-2)Man(a1-3)[GlcNAc(b1-3)Gal(b1-4)GlcNAc(b1-3)Gal(b1-4)GlcNAc(b1-3)Gal(b1-4)GlcNAc(b1-3)Gal(b1-4)GlcNAc(b1-2)Man(a1-6)]Man(b1-4)GlcNAc(b1-4)GlcNAc
# In short: as §1
# [37] = biological target: GlcNAc(b1-3)Gal(b1-4)GlcNAc(b1-3)Gal(b1-4)GlcNAc(b1-3)Gal(b1-4)GlcNAc(b1-3)Gal(b1-4)GlcNAc(b1-2)Man(a1-3)[GlcNAc(b1-3)Gal(b1-4)GlcNAc(b1-3)Gal(b1-4)GlcNAc(b1-3)Gal(b1-4)GlcNAc(b1-3)Gal(b1-4)GlcNAc(b1-2)Man(a1-6)]Man(b1-4)GlcNAc(b1-4)[Fuc(a1-6)]GlcNAc
# In short: as §1
binder,measurement,setting,value
B1,glycan array binding signal (z-score),Glc(b1-4)Glc,-0.403
same,glycan array binding signal (z-score),Glc(b1-6)Glc,-0.633
same,glycan array binding signal (z-score),GlcA(b1-3)Gal,-0.673
same,glycan array binding signal (z-score),GlcA(b1-3)GlcNAc,-0.083
same,glycan array binding signal (z-score),GlcA(b1-6)Gal,-0.236
same,glycan array binding signal (z-score),[1],-0.207
same,glycan array binding signal (z-score),[2],0.153
same,glycan array binding signal (z-score),[3],0.004
same,glycan array binding signal (z-score),[4],0.083
same,glycan array binding signal (z-score),[5],0.082
same,glycan array binding signal (z-score),[6],-0.482
same,glycan array binding signal (z-score),[7],0.258
same,glycan array binding signal (z-score),[8],-0.473
same,glycan array binding signal (z-score),[9],0.122
same,glycan array binding signal (z-score),[10],0.686
same,glycan array binding signal (z-score),[11],0.139
same,glycan array binding signal (z-score),[12],0.337
same,glycan array binding signal (z-score),[13],-0.291
same,glycan array binding signal (z-score),[14],0.421
same,glycan array binding signal (z-score),[15],-0.094
same,glycan array binding signal (z-score),[16],-0.169
same,glycan array binding signal (z-score),[17],-0.339
same,glycan array binding signal (z-score),[18],-0.481
same,glycan array binding signal (z-score),[19],-0.413
same,glycan array binding signal (z-score),[20],-0.012
same,glycan array binding signal (z-score),[21],-0.116
same,glycan array binding signal (z-score),[22],-0.01
same,glycan array binding signal (z-score),[23],-0.466
same,glycan array binding signal (z-score),GlcNAc(b1-3)Fuc,0.024
same,glycan array binding signal (z-score),GlcNAc(b1-3)Gal,-0.625
same,glycan array binding signal (z-score),[24],-0.481
same,glycan array binding signal (z-score),GlcNAc(b1-3)Gal(b1-4)Glc,-0.108
same,glycan array binding signal (z-score),[25],-0.358
same,glycan array binding signal (z-score),[26],0.058
same,glycan array binding signal (z-score),[27],0.125
same,glycan array binding signal (z-score),[28],0.447
same,glycan array binding signal (z-score),[29],0.43
same,glycan array binding signal (z-score),[30],0.923
same,glycan array binding signal (z-score),[31],0.195
same,glycan array binding signal (z-score),[32],0.737
same,glycan array binding signal (z-score),[33],0.918
same,glycan array binding signal (z-score),[34],1.67
same,glycan array binding signal (z-score),[35],0.847
same,glycan array binding signal (z-score),[36],0.678
same,glycan array binding signal (z-score),[37],1.4

# Laid out differently: entries from further up
binder | measurement | setting | value
B1 | glycan array binding signal (z-score) | [3] | 0.004
same | glycan array binding signal (z-score) | [5] | 0.082
same | glycan array binding signal (z-score) | [6] | -0.482
same | glycan array binding signal (z-score) | [7] | 0.258
same | glycan array binding signal (z-score) | [8] | -0.473
same | glycan array binding signal (z-score) | [13] | -0.291
same | glycan array binding signal (z-score) | [19] | -0.413
same | glycan array binding signal (z-score) | [21] | -0.116
same | glycan array binding signal (z-score) | [22] | -0.01
same | glycan array binding signal (z-score) | [31] | 0.195
same | glycan array binding signal (z-score) | [32] | 0.737
same | glycan array binding signal (z-score) | [33] | 0.918
